# Results as given in PubChem BioAssay AID1347076 (National Center for Advancing Translational Sciences (NCATS), 2019).
# About 13,000 (3.2%) of roughly 400,000 compounds were called active. Inconclusive means that the source gave no clear call. Such entries were picked first, then a sample of the others. Calls come from the whole dose curve; as a rule, active = well fitted cell-killing curve with a large enough effect; inconclusive = small, poorly fitted or top-dose-only effect, or effect the other way; inactive = flat fitted curve, though single readings scatter. Where the call is inconclusive, the potency comes from a doubtful curve fit.
# Test: qHTS assay for MDR1-selective chemotherapeutics: Primary screen using the drug-selected MDR subline cells KB-V1; note: nearly all actives have a fitted effect of over 60% in size
# Conditions: KB-V1 MDR cells viability, CellTiter-Glo, 72 h; activity change, negative = cytotoxicity: at 46.1 µM (top of the series)
# Method in brief: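 Cytotoxicity via CellTiter-Glo luminescence after 72 h compound exposure at 37 degrees C. Cells: drug-selected KB-V1 line, DMEM phenol-red free plus 10% FBS. Compounds tested at multiple concentrations; normalized data fitted to concentration-effect curves.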
# % is set by controls: 0 for no effect and ±100 for the full control effect; potency is the fitted concentration of half-maximal effect.
SMILES,Potency,"activity change, negative = cytotoxicity"
Cc1ccc(NC(=S)N/N=C/c2ccc(OCCC(C)C)cc2)c(C)c1,active: 16.4 µM,
O=C(Nc1ncc(Cc2cccc(Cl)c2)s1)c1ccc([N+](=O)[O-])cc1,"inconclusive: 4.61 µM [cytotoxic, full curve, poor fit]",
CCc1ccc(NS(=O)(=O)c2ccc3[nH]cc(C(=O)NCCc4ccccc4)c(=O)c3c2)cc1,"inconclusive: 14.6 µM [rising, single point]",
O=C(N/N=C/c1ccco1)c1cc(-c2cccc(Br)c2)nc2ccccc12,"inconclusive: 23.1 µM [cytotoxic, single point]",
O=C1[C@H]2[C@@H](c3ccc(C(F)(F)F)cc3)N[C@]3(CCCN(Cc4ccc(Cl)cc4)C3=O)[C@H]2C(=O)N1Cc1ccccc1,"inconclusive: 29.1 µM [cytotoxic, single point]",
CN(C)c1ccc(NC(=S)c2ccccn2)cc1,"inconclusive: 20.6 µM [cytotoxic, single point]",
COc1ccc([C@@H]2CC(=O)[C@@H]3CN(S(=O)(=O)c4ccc(C)cc4)[C@H](c4ccccc4)C[C@@H]3N2S(=O)(=O)c2ccccc2)cc1,,inactive: -5.8%
Cc1ccc2cc(C#N)c(N3CCN(C(=O)c4cccs4)CC3)nc2c1,"inconclusive: 8.2 µM [cytotoxic, partial curve]",
FC(F)(F)c1ccccc1-n1c(CN2CCCCC2)n[nH]c1=S,,inactive: 7.35%
CC(C)CN(CC(C)C)c1nn[nH]n1,,inactive: -6.5%
Cc1ccc(N(CC(=O)NC2CCCC2)C(=O)c2nsc(Cl)c2Cl)cc1,,inactive: -5.14%
Oc1cccc(CN2CCOCC2)c1O,"inconclusive: 20.6 µM [cytotoxic, single point]",
COc1ccc(N2C(=O)c3ccccc3NC2c2cccnc2)cc1 (stereo not drawn),"inconclusive: 18.4 µM [cytotoxic, partial curve]",
Cc1cccc(CNC(=O)C2CCN(S(=O)(=O)c3cccc4nonc34)CC2)c1,,inactive: 7.05%
CC(C)=CCc1c(-c2ccc(O)cc2O)oc2c3c(cc(O)c2c1=O)OC(C)(C)C=C3,"inconclusive: 29.1 µM [cytotoxic, single point]",
COc1ccc(C(=O)NC(=S)NNC(=O)c2ccccc2O)cc1,"inconclusive: 4.11 µM [cytotoxic, full curve]",
Cc1ccc(C)c(NC(=O)C2CCCN2S(=O)(=O)c2ccc3c(c2)CCCC(=O)N3)c1 (stereo not drawn),,inactive: 1.1%
O=S(=O)(NCc1ccco1)c1ccc(S(=O)(=O)N2CCCCC2)cc1,active: 16.4 µM,
CC1=CC(C)(C)Nc2ccc(OS(=O)(=O)c3ccc(C)cc3)cc21,active: 14.6 µM,
COc1ccc2cc(CCNC(=O)c3ccco3)c(=O)[nH]c2c1,"inconclusive: 29.1 µM [cytotoxic, partial curve, poor fit]",
CCOC(=O)CCN(Cc1cccs1)S(=O)(=O)c1ccc(Cl)cc1,active: 14.6 µM,
CCNc1ccc(S(=O)(=O)N(C)C)cc1NCC(=O)Nc1c(F)cccc1F,"inconclusive: 23.1 µM [cytotoxic, single point]",
O=c1cc(O)c2c(=O)n(-c3ccccc3)c3c(c2o1)CCCCC3,active: 16.4 µM,
COc1ccccc1NC(=O)c1oc2ccccc2c1NC(=O)C1CC1,,inactive: -19%
COc1ccc(C2=NN(C)C(=NCc3ccccc3)SC2)cc1,active: 23.1 µM,

# Some of these compounds in order of SMILES length, smallest number first:
SMILES,Potency,"activity change, negative = cytotoxicity"
Oc1cccc(CN2CCOCC2)c1O,"inconclusive: 20.6 µM [cytotoxic, single point]",
CC(C)CN(CC(C)C)c1nn[nH]n1,,inactive: -6.5%
CN(C)c1ccc(NC(=S)c2ccccn2)cc1,"inconclusive: 20.6 µM [cytotoxic, single point]",
COc1ccc(C2=NN(C)C(=NCc3ccccc3)SC2)cc1,active: 23.1 µM,
COc1ccc(C(=O)NC(=S)NNC(=O)c2ccccc2O)cc1,"inconclusive: 4.11 µM [cytotoxic, full curve]",
FC(F)(F)c1ccccc1-n1c(CN2CCCCC2)n[nH]c1=S,,inactive: 7.35%
CCOC(=O)CCN(Cc1cccs1)S(=O)(=O)c1ccc(Cl)cc1,active: 14.6 µM,
O=c1cc(O)c2c(=O)n(-c3ccccc3)c3c(c2o1)CCCCC3,active: 16.4 µM,
Cc1ccc2cc(C#N)c(N3CCN(C(=O)c4cccs4)CC3)nc2c1,"inconclusive: 8.2 µM [cytotoxic, partial curve]",
O=S(=O)(NCc1ccco1)c1ccc(S(=O)(=O)N2CCCCC2)cc1,active: 16.4 µM,
Cc1ccc(N(CC(=O)NC2CCCC2)C(=O)c2nsc(Cl)c2Cl)cc1,,inactive: -5.14%
O=C(N/N=C/c1ccco1)c1cc(-c2cccc(Br)c2)nc2ccccc12,"inconclusive: 23.1 µM [cytotoxic, single point]",
O=C(Nc1ncc(Cc2cccc(Cl)c2)s1)c1ccc([N+](=O)[O-])cc1,"inconclusive: 4.61 µM [cytotoxic, full curve, poor fit]",
Cc1ccc(C)c(NC(=O)C2CCCN2S(=O)(=O)c2ccc3c(c2)CCCC(=O)N3)c1 (stereo not drawn),,inactive: 1.1%
CCc1ccc(NS(=O)(=O)c2ccc3[nH]cc(C(=O)NCCc4ccccc4)c(=O)c3c2)cc1,"inconclusive: 14.6 µM [rising, single point]",
O=C1[C@H]2[C@@H](c3ccc(C(F)(F)F)cc3)N[C@]3(CCCN(Cc4ccc(Cl)cc4)C3=O)[C@H]2C(=O)N1Cc1ccccc1,"inconclusive: 29.1 µM [cytotoxic, single point]",
COc1ccc([C@@H]2CC(=O)[C@@H]3CN(S(=O)(=O)c4ccc(C)cc4)[C@H](c4ccccc4)C[C@@H]3N2S(=O)(=O)c2ccccc2)cc1,,inactive: -5.8%

# Further results.

SMILES,Potency,"activity change, negative = cytotoxicity"
O=C(O)C1CCCN1C(=O)c1cccs1 (stereo not drawn),"inconclusive: 25.9 µM [rising, single point]",
Cc1ccc(C(c2cc(Cl)c3cccnc3c2O)N2CCN(C)CC2)cc1 (stereo not drawn),,inactive: -10.4%
Cc1ncoc1C(=O)NC1CCCc2c1cnn2-c1cc(F)cc(F)c1 (stereo not drawn),"inconclusive: 23.1 µM [cytotoxic, single point]",
COc1ccc(NC(=S)NC(=O)/C=C/c2ccco2)c(OC)c1,,inactive: -14.8%
COc1cccc(-c2noc(COc3cccc(C)c3C)n2)c1,"inconclusive: 29.1 µM [rising, single point]",
CCOC(=O)C1=C(C)OC(N)=C(C#N)C1c1cc(OC)c2c(c1)OCO2 (stereo not drawn),,inactive: -4.63%
COC(=O)c1sc(NC(=O)c2cc3c(s2)CCCC3)nc1C,,inactive: 7.67%
CC(=O)Nc1ccc(S(=O)(=O)N2CCC(C(=O)c3ccc(F)cc3)CC2)cc1,,inactive: -21.3%
CCCCN(CC)CCNC(=O)c1nn(-c2ccc(OC)cc2)c(=O)c2c1c1ccccc1n2C,"inconclusive: 1.64 µM [cytotoxic, partial curve, poor fit]",
CN1C(=O)CON=C1c1cccc2ccccc12,,inactive: -0.649%
CC(C)c1ccc(NC(=O)C2CCN(c3ncnc4c3nc3n4CCCCC3)CC2)cc1,,inactive: -9.56%
O=C(O)/C=C/C(=O)Nc1ccc(OC(F)(F)F)cc1Br,,inactive: 20.2%
O=C(N/N=C/c1cnc(N2CCCCC2)s1)c1ccc(C(F)(F)F)cc1,"inconclusive: 32.6 µM [cytotoxic, single point]",
COc1ccc(S(=O)(=O)N2CCC(NC(=O)N3CCOCC3)CC2)cc1,,inactive: 17.5%
Cc1ccc(S(=O)(=O)N2CCN(C(=O)N3CCCC3)CC2)cc1,"inconclusive: 16.4 µM [cytotoxic, single point]",
Cc1ccc(C)c(CN2CCC(CNC(=O)Nc3ccc(C)c(F)c3)CC2)c1,"inconclusive: 25.9 µM [cytotoxic, single point]",
O=C(CCCc1ccccc1)NCCS(=O)(=O)N1CCN(c2ccc(F)cc2)CC1,"inconclusive: 9.2 µM [cytotoxic, partial curve]",
COCCNCCCOc1ccc(Cl)cc1Br,,inactive: -22.7%
O=C(CN(Cc1ccccc1)S(=O)(=O)c1ccc(Br)cc1)NCc1ccco1,"inconclusive: 8.2 µM [cytotoxic, partial curve]",
CCOC(=O)c1csc(NC(=O)C2=COCCO2)n1,,inactive: -4.53%
O=C(NC(c1ccc(Cl)cc1)c1cnccn1)C1CCN(Cc2ccc(Cl)cc2)CC1 (stereo not drawn),,inactive: -6.8%
CCOC(=O)c1sc(NC(=O)c2ccccc2)cc1C,,inactive: -19.7%
O=C(CSc1ccc2c(c1)OCCO2)Nc1ccc(N2CCOCC2)cc1,"inconclusive: 20.6 µM [cytotoxic, partial curve, poor fit]",
Cc1ccc(OC/C(O)=C(\C#N)c2nc3ccccc3s2)cc1,"inconclusive: 29.1 µM [cytotoxic, single point]",
COC(=O)c1ccc(NC(=O)C[n+]2ccccc2)cc1,"inconclusive: 18.4 µM [rising, partial curve, poor fit]",

SMILES,Potency,"activity change, negative = cytotoxicity"
O=C(CCN1C(=O)/C(=C/c2ccccc2Cl)SC1=S)NCCc1ccc(O)cc1,"inconclusive: 29.1 µM [rising, single point]",
COc1cccc(-c2oc3c(c2C(=O)OCCN(C)C)C(O)CCC3)c1 (stereo not drawn),"inconclusive: 14.6 µM [cytotoxic, partial curve, poor fit]",
CCOC(=O)c1noc2ncn(CC(=O)Nc3ccc(OC)c(Cl)c3)c(=O)c12,,inactive: -2.17%
Cn1cncc1C#Cc1c(-c2ccsc2)sc2ccccc12,"inconclusive: 29.1 µM [cytotoxic, single point]",
Cc1cc(C)n(CCc2nc(-c3ccc(C(C)(C)C)cc3)cs2)n1,active: 16.4 µM,
CC1(c2nnc(-c3ccc(Cl)cc3)o2)CC(c2cccnc2)=NO1 (stereo not drawn),"inconclusive: 32.6 µM [cytotoxic, single point]",
COc1ccc([C@H]2C[C@H](O)[C@@H](n3cc(COC(=O)c4ccccc4)nn3)CN2CC2CCCCC2)cc1,"inconclusive: 29.1 µM [cytotoxic, single point]",
CCOC(=O)Nc1ccc(N2CCOCC2)c(S(=O)(=O)Nc2ccc(Cl)cc2)c1,"inconclusive: 18.4 µM [cytotoxic, single point]",
Oc1ccc(Cl)c(CN2CCN(c3ncc(Cc4ccccc4)cn3)CC2)c1,active: 16.4 µM,
Cc1ccccc1C(=O)N1CCN(CCNC(=O)C(=O)Nc2ccc(Br)cc2)CC1,"inconclusive: 4.61 µM [cytotoxic, full curve, poor fit]",
COc1ccc(CC(NC(C)=O)C(=O)NC2CCN(c3c4c(nc5ncnn35)CCC4)CC2)cc1OC (stereo not drawn),"inconclusive: 5.17 µM [rising, partial curve, poor fit]",
COC(=O)c1cc(NC(=O)c2ccccc2)c(=O)oc1C,,inactive: 16%
O=C(O)c1cccc2c1C(=O)c1ccc(-c3ccc(F)cc3F)cc1S2(=O)=O,"inconclusive: 29.1 µM [rising, single point]",
COc1ccc(-c2nc(N/N=C(\C)c3ccc(O)cc3)c3ccccc3n2)cc1,"inconclusive: 29.1 µM [cytotoxic, single point]",
CCOC(=O)N1CCN(c2cc(=O)n(-c3cccc(Br)c3)c(=O)[nH]2)CC1,,inactive: 13.1%
CC(=O)c1cccc(NC(=S)NC(=O)CC(C)C)c1,"inconclusive: 29.1 µM [cytotoxic, single point]",
CC(C)CN1CCC(=O)N([C@H](COc2ccccc2)Cc2ccccc2)CC1,"inconclusive: 9.2 µM [cytotoxic, partial curve]",
COc1ccc(-n2c(SCC(=O)O)nc3sc4c(c3c2=O)CCCC4)cc1,,inactive: 1.98%
CCCc1cc2c(=O)c(-c3ccc4c(c3)OCCO4)coc2cc1OS(C)(=O)=O,active: 10.3 µM,
Cc1cccc(C)c1N=Nc1c(C)cc(O)cc1C,"inconclusive: 14.6 µM [cytotoxic, single point]",
O=C1OCC2=C1C(c1ccc(F)cc1)c1cc3c(cc1N2)OCO3 (stereo not drawn),active: 0.146 µM,
Cc1cc(NC(=O)CN(C)S(=O)(=O)c2ccc3c(c2)CCCC(=O)N3)ccc1Br,active: 16.4 µM,
COc1cc(NC(=O)c2cc3c(CO)cnc(C)c3oc2=Nc2cccc(C(N)=O)c2)cc(OC)c1,,inactive: 3.18%
